According to the supplement of paper PMC8104966:
Several values for one entry are separate records, joined by “and”; a condition that tells them apart may be missing. Equal values may be shown once. The list shows a part of the results. This data set is noisy: repeats of one test often differ as much as different tests do.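 U2OS cells expressing ACE2 were combined with U2OS cells expressing full-length spike, and imaging quantified fusion as the fraction of nuclei displaying both cell types' fluorescent markers. Non-toxic compounds with a fusion z-score under -3, i.e., over three standard deviations below the plate's DMSO wells, are called inhibitory hits.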

Tested on: U2OS ACE2 x SARS-CoV-2 spike co-culture
Experiment: cell-cell fusion (fraction fused) z-score vs plate DMSO control; higher = more fusion
Conditions: 30 µM; 5 h; toxicity class: non-toxic, passed QC

SMILES	cell-cell fusion (z-score)
NC(=O)N[C@@H](CCC(=O)O)C(=O)O [Carbaglu]	inactive: 3.54
COc1ccc2c(=O)c(CC(=O)O)coc2c1	inactive: 1.84
CC(N)=O [Acetamide]	inactive: 1.01
N#C[C@@H]1C[C@@H]2C[C@@H]2N1C(=O)[C@@H](N)C12CC3CC(CC(O)(C3)C1)C2.O [Saxagliptin hydrate]	inactive: 2.77
COc1cccc(-c2cc(=O)c3ccccc3o2)c1N	inactive: -0.124
Cl.Clc1ccc(CCCOCCCN2CCCCC2)cc1 [Pitolisant hydrochloride]	inactive: 0.685
CC(=O)OCC(CCn1cnc2cnc(N)nc21)COC(C)=O	inactive: 3.08
CC(=O)OCC(CCn1cnc2cnc(N)nc21)COC(C)=O [Famciclovir]	inactive: 2.42
O=C1CCC(N2C(=O)c3ccccc3C2=O)C(=O)N1 (stereo not given) [Thalidomide]	inactive: 2.24
Cc1cnc(NC(=O)C2=C([O][Na])c3ccccc3S(=O)(=O)N2C)s1 [Meloxicam sodium]	inactive: 3.06
COC(=O)[C@@H]1[C@H]2C[C@H]3c4[nH]c5ccccc5c4CCN3C[C@@H]2CC[C@@H]1O.Cl [Yohimbine hydrochloride]	inactive: 1.65
CP(=O)([O-])C1=CC[NH2+]CC1	inactive: 0.219
O=C([O-])C[C@H](O)C[C@H](O)/C=C/c1c(C2CC2)nc2ccccc2c1-c1ccc(F)cc1.[Ca+2]	inactive: 4.11
CCCn1c(=O)[nH]c(=O)c2[nH]cnc21 [3-n-Propylxanthine]	inactive: 2.4
Cc1ccc(C(=O)Nc2ccc(CN3CCN(C)CC3)c(C(F)(F)F)c2)cc1C#Cc1cnc2cccnn12	inactive: 1.89
CCCCCCOC(=O)NC(=N)c1ccc(NCc2nc3cc(C(=O)N(CCC(=O)OCC)c4ccccn4)ccc3n2C)cc1 [Dabigatran etexilate]	inactive: -1.51
CN(C)[C@@H]1C(O)=C(C(N)=O)C(=O)[C@@]2(O)C(O)=C3C(=O)c4c(O)cccc4[C@@](C)(O)[C@H]3[C@H](O)[C@@H]12 [Oxytetracycline]	inactive: 3.66
Cc1cc(C(C)(C)C)c(O)c(C)c1CC1=NCCN1.Cl [Oxymetazoline hydrochloride]	inactive: 2.34
O=C(NCO)c1cccnc1	inactive: 1.93
FC(F)(Cl)C(F)(F)Cl	inactive: 0.277
OCC1O[C@H](O)C(Cl)C(O)C1O (stereo partly drawn) [2-Chloro-2-deoxy-D-glucose]	inactive: 3.29
N#CC(C#N)=C(N)/C(C#N)=C/c1ccc(O)cc1 [Tyrphostin AG 112]	inactive: 3.39
O=C1c2ccccc2C(=O)C1c1ccccc1 [Phenylindione]	inactive: 2.43
Cc1cc2c(s1)Nc1ccccc1N=C2N1CCN(C)CC1 [Olanzapine]	inactive: 2.72
C=C(C)[C@@H]1[C@H]2OC(=O)[C@@H]1[C@]1(O)C[C@H]3O[C@]34C(=O)O[C@H]2[C@]14C.CC(C)(O)[C@@H]1[C@H]2OC(=O)[C@@H]1[C@]1(O)C[C@H]3O[C@]34C(=O)O[C@H]2[C@]14C [Picrotoxin]	inactive: 3.26

SMILES	cell-cell fusion (z-score)
CCCCOc1cc(C(=O)NCCN(CC)CC)c2ccccc2n1.Cl	inactive: -0.12
C[C@@]1(C2CCCC2)Cc2cc(OCC(=O)O)c(Cl)c(Cl)c2C1=O	inactive: 2.12
S=C(NCc1ccc2c(c1)OCO2)N1CCN(c2ncnc3c2oc2ccccc23)CC1 [Amuvatinib (MP-470)]	inactive: 0.701
CCOC(=O)n1ccn(C)c1=S	inactive: 3.49
O=C(O)CCc1ccc(NCc2cccc(Oc3ccccc3)c2)cc1	inactive: 0.494
CC(S)C(=O)NCC(=O)O (stereo not given)	inactive: 1.75
CC(C)(Oc1ccc(C2CC2(Cl)Cl)cc1)C(=O)O (stereo not given)	inactive: 1.62
CC(C)(Oc1ccc(C2CC2(Cl)Cl)cc1)C(=O)O (stereo not given) [Ciprofibrate]	inactive: 0.483
O=c1[nH]c(=O)n([C@H]2C[C@H](O)[C@@H](CO)O2)cc1Br [5-Bromo-2'-deoxyuridine]	inactive: 2.27
C=C(C)[C@@H]1CC[C@]2(C)CC[C@]3(C)[C@@H](CCC4[C@@]5(C)CC[C@H](OC(C)=O)C(C)(C)C5CC[C@]43C)C12 (stereo not given in full)	inactive: 2.18
CC1(C)S[C@@H]2[C@H](NC(=O)[C@H](NC(=O)N3CCNC3=O)c3ccccc3)C(=O)N2C1C(=O)[O-].[Na+] (stereo not given in full)	inactive: 3.65
COc1ccc2nc(S(=O)Cc3ncc(C)c(OC)c3C)[nH]c2c1 (stereo not given) [Omeprazole]	inactive: 1.92
Cc1ccccc1N1CCN(CCc2nnc3n2CCCC3)CC1.Cl [Dapiprazole Hydrochloride]	inactive: 1.1
CC(C)c1ccc(CC(=O)N2CCC[C@@H](c3cccc(OC(C)(C)C(=O)[O-])c3)C2)cc1.[Na+]	inactive: 0.806
Cc1cc(O)cc(O)c1C(=O)O	inactive: 3.2
N=C(N)NC(=N)Nc1ccccc1 [1-Phenylbiguanide]	inactive: 2.23
Cl.N=C(N)N [Guanidine hydrochloride]	inactive: 3.48
CCOC(=O)N[C@@H]1CC[C@@H]2[C@@H](C1)C[C@H]1C(=O)O[C@H](C)[C@H]1[C@H]2/C=C/c1ccc(-c2cccc(F)c2)cn1 [Vorapaxar]	active: -6.15
Cn1cc(-c2[nH]c3cc(NC(=O)[C@H](N)C4CCCCC4)cc4c3c2C=NNC4=O)cn1	active: -10.7
Cl.Cl.Cn1cnc(CCN)c1 [1-Methylhistamine dihydrochloride]	inactive: 2
CCOc1ccn(-c2ccc(F)cc2)c(=O)c1C(=O)Nc1ccc(Oc2ccnc(N)c2Cl)c(F)c1	inactive: 1.1 and inactive: 1.54
CO[C@H]1/C=C\C=C(\C)C(=O)NC2=CC(=O)C(NCCN(C)C)=C(C[C@@H](C)C[C@H](OC)[C@H](O)[C@@H](C)/C=C(\C)[C@@H]1OC(N)=O)C2=O.Cl [17-DMAG HCl (Alvespimycin)]	inactive: 2.07
COc1ccc(C(C)=O)c(O)c1	inactive: 4.05
CCCCC[C@H](CC(=O)O)C(=O)O	inactive: 1.96
CCCCC(CC)CCC(CC(C)C)OS(=O)(=O)[O-].[Na+] (stereo not given)	inactive: 1.28

SMILES	cell-cell fusion (z-score)
CCC(C)(C)c1ccc(CC(C)CN2C[C@@H](C)O[C@@H](C)C2)cc1.Cl (stereo not given in full)	inactive: 5.34
O=C1C=CC(=O)c2ccccc21	inactive: 0.394
O=C(CNC(=O)c1ccc(Cl)cc1)NO	inactive: -0.0478
CCCn1c(=O)c2[nH]c(C3CCCC3)nc2n(CCC)c1=O [8-Cyclopentyl-1,3-dipropylxanthine]	inactive: 3.46
CCOC(=O)c1ncn2c1CN(C)C(=O)c1cc(F)ccc1-2	inactive: 1.62
CSc1ccccc1N1CCN(CCCCCC(=O)NC2CCCc3ccccc32)CC1.Cl (stereo not given)	inactive: 2.82
CC1(C)S[C@@H]2[C@H](NC(=O)Cc3ccccc3)C(=O)N2[C@H]1C(=O)[O-].[Na+] [Penicillin G sodium salt]	inactive: 3.48
COc1cc2c(c3ccccc13)OC(C)(C)C=C2	inactive: 1.12
C#Cc1cccc(Nc2ncnc3cc(OCCOC)c(OCCO)cc23)c1.Cl	inactive: 0.142
CCCCc1ccc(C(=O)O)nc1 [Fusaric acid]	inactive: 2.11
Nc1ncnc2c1c(-c1cccc(OCc3ccccc3)c1)cn2[C@H]1C[C@@H](CN2CCC2)C1	active: -9.58
CC(=O)Nc1nnc(S(N)(=O)=O)s1 [Acetazolamide]	inactive: 1.27
CC(=O)Nc1nnc(S(N)(=O)=O)s1	inactive: 0.875
Oc1ccc(-c2nc(-c3ccc(F)cc3)c(-c3ccncc3)[nH]2)cc1	inactive: 0.442
CC(=O)c1c(C)c2cnc(Nc3ccc(N4CCNCC4)cn3)nc2n(C2CCCC2)c1=O.O=S(=O)(O)CCO [Palbociclib Isethionate]	inactive: -1.46
C#CCN(C)CCCOc1ccc(Cl)cc1Cl.Cl [Clorgyline hydrochloride]	inactive: 2.89
CCNC1CN(CCCOC)S(=O)(=O)c2sc(S(N)(=O)=O)cc21 (stereo not given)	inactive: 1.78
C#C[C@@]1(O)CC[C@@H]2[C@H]3CCC4=CC(=O)CC[C@H]4[C@@H]3CC[C@]21CC.C#C[C@]1(O)CC[C@H]2[C@@H]3CCC4=CC(=O)CC[C@@H]4[C@H]3CC[C@@]21CC [Norgestrel]	inactive: 3.09
CC(=O)OC1CC2CCC1(C)C2(C)C (stereo not given)	inactive: 2.43
Cc1c(S(=O)(=O)[O-])oc2c1C(=O)C(=O)c1c-2ccc2c1CCCC2(C)C.[Na+]	inactive: 1.26
Cl.c1ccc2cc(CC3=NCCN3)ccc2c1 [Naphazoline hydrochloride]	inactive: 2.99
CCCn1c(=O)c2nc(C3CCCC3)[nH]c2n(CCC)c1=O	inactive: 2.74
CCCCc1oc2ccccc2c1C(=O)c1cc(I)c(OCCN(CC)CC)c(I)c1.Cl [Amiodarone hydrochloride]	inactive: 0.862
O=C(O)C1CCCNC1 (racemic) [(±)-Nipecotic acid]	inactive: 1.25
Cl.NC1CCN(c2c(F)cc3c(=O)c(C(=O)O)cn(C4CC4)c3c2Cl)C1 (stereo not given)	inactive: 1.27

Rewritten in markdown: entries from further up

| SMILES | cell-cell fusion (z-score) |
| --- | --- |
| O=C1C=CC(=O)c2ccccc21 | inactive: 0.394 |
| O=C(CNC(=O)c1ccc(Cl)cc1)NO | inactive: -0.0478 |
| CCCn1c(=O)c2[nH]c(C3CCCC3)nc2n(CCC)c1=O [8-Cyclopentyl-1,3-dipropylxanthine] | inactive: 3.46 |
| CCOC(=O)c1ncn2c1CN(C)C(=O)c1cc(F)ccc1-2 | inactive: 1.62 |
| CSc1ccccc1N1CCN(CCCCCC(=O)NC2CCCc3ccccc32)CC1.Cl (stereo not given) | inactive: 2.82 |
| CC1(C)S[C@@H]2[C@H](NC(=O)Cc3ccccc3)C(=O)N2[C@H]1C(=O)[O-].[Na+] [Penicillin G sodium salt] | inactive: 3.48 |
| COc1cc2c(c3ccccc13)OC(C)(C)C=C2 | inactive: 1.12 |
| C#Cc1cccc(Nc2ncnc3cc(OCCOC)c(OCCO)cc23)c1.Cl | inactive: 0.142 |
| CCCCc1ccc(C(=O)O)nc1 [Fusaric acid] | inactive: 2.11 |
| Nc1ncnc2c1c(-c1cccc(OCc3ccccc3)c1)cn2[C@H]1C[C@@H](CN2CCC2)C1 | active: -9.58 |
| CC(=O)Nc1nnc(S(N)(=O)=O)s1 [Acetazolamide] | inactive: 1.27 |
| CC(=O)Nc1nnc(S(N)(=O)=O)s1 | inactive: 0.875 |
| Oc1ccc(-c2nc(-c3ccc(F)cc3)c(-c3ccncc3)[nH]2)cc1 | inactive: 0.442 |
